Measurements taken from the supplement of paper PMC10849652.
Some of the results follow.

Amino acid sequences for entries named in this document (tags omitted). A change or cut given only in a name is not applied to a line headed by its entry.
UniProt Q8N9Q2: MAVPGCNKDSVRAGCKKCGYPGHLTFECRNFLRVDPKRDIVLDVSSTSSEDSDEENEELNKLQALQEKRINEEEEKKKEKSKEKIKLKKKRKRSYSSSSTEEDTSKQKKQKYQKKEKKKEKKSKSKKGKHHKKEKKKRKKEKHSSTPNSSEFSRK
UniProt Q08945, whole entry, looked up: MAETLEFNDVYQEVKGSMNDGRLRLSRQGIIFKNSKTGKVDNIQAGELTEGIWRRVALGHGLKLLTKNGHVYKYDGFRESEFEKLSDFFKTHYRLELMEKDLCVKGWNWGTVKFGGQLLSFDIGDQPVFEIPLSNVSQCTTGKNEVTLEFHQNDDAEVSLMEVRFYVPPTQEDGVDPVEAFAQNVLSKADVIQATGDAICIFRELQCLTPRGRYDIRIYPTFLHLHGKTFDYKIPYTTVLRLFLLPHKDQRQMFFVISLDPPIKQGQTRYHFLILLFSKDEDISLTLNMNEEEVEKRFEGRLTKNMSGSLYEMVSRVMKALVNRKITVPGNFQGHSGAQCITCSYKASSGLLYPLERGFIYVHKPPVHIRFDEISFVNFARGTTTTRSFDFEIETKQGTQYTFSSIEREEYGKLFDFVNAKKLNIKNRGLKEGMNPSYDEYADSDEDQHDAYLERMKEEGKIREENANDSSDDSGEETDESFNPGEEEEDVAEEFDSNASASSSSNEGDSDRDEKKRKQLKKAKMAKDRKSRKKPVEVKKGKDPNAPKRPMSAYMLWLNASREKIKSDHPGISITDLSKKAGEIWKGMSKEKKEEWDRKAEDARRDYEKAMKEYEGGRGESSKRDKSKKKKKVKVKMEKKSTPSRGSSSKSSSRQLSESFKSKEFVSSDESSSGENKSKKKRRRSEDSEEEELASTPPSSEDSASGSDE
UniProt Q13242, whole entry, looked up: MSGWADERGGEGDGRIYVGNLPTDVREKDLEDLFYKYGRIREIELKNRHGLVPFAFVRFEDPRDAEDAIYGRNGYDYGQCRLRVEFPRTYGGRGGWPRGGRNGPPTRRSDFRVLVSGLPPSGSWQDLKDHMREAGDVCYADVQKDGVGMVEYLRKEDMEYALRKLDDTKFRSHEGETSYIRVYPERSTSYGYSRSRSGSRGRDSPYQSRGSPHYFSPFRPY
UniProt Q8NEF9: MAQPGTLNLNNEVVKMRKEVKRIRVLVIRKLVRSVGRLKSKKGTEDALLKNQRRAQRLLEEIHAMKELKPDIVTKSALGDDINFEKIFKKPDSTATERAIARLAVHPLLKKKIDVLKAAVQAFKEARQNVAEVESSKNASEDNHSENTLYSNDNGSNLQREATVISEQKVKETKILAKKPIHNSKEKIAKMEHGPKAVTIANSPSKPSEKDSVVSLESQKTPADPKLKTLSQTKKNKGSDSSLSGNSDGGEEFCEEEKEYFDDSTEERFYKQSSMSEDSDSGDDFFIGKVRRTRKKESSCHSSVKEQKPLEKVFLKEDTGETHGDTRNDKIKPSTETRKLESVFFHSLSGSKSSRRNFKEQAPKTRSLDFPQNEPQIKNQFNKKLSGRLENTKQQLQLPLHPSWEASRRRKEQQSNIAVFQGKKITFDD
UniProt P51571: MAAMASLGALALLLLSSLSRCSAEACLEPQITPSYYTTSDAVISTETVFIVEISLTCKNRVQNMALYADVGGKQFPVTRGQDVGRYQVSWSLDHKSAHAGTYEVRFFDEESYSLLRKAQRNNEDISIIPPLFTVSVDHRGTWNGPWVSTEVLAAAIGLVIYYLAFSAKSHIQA
UniProt P78362, whole entry, looked up: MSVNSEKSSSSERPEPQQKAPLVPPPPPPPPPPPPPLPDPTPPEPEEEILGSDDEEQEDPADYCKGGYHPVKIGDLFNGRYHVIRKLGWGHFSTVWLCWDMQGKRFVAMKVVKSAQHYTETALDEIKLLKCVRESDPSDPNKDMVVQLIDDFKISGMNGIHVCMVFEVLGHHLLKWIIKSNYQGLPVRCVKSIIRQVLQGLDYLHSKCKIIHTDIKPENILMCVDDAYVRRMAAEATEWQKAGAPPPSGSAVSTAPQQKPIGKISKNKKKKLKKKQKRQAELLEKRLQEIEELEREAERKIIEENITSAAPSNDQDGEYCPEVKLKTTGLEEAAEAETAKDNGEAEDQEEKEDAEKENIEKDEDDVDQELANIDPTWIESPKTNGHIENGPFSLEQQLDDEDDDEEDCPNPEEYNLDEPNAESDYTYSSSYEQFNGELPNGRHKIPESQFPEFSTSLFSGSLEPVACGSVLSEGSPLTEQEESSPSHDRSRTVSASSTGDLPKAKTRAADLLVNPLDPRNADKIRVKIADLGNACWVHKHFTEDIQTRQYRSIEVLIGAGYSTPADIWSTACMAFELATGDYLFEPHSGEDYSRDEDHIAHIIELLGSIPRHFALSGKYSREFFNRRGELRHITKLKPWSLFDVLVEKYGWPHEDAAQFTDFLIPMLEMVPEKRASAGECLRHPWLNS
UniProt Q9UNL2: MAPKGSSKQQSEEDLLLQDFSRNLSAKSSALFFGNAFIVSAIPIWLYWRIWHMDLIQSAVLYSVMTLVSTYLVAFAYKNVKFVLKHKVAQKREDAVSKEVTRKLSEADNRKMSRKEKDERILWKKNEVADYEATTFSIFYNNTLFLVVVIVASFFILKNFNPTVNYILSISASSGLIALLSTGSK
UniProt Q9BWG4: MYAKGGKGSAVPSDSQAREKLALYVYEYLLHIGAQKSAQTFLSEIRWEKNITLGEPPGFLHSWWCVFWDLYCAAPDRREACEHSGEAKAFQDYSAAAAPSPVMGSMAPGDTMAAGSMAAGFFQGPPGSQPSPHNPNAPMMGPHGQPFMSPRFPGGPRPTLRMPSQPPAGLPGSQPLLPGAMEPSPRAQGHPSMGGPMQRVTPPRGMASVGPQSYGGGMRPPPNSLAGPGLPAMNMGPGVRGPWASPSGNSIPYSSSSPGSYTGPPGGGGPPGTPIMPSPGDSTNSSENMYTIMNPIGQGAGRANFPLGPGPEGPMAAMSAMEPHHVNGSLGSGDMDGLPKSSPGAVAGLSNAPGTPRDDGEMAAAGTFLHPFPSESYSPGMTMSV
UniProt Q08AE8, whole entry, looked up: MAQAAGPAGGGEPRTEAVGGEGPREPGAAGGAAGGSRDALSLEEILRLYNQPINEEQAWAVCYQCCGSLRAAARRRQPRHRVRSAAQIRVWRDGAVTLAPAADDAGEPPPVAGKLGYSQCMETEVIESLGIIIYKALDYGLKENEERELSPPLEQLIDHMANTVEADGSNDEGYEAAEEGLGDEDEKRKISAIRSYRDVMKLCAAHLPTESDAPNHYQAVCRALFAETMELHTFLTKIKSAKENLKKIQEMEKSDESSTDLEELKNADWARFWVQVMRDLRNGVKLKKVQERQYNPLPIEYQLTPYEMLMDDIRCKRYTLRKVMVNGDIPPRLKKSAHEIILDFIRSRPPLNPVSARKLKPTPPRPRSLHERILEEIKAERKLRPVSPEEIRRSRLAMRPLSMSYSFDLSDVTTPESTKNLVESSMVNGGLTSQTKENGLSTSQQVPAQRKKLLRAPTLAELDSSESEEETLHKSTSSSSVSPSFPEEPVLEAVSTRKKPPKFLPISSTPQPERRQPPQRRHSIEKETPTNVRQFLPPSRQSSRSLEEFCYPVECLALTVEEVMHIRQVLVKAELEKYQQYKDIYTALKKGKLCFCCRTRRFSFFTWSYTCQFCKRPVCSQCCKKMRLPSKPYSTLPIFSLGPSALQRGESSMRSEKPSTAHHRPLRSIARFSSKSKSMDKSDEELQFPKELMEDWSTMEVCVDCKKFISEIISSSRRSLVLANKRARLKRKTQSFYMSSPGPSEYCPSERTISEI
UniProt Q9UQ90: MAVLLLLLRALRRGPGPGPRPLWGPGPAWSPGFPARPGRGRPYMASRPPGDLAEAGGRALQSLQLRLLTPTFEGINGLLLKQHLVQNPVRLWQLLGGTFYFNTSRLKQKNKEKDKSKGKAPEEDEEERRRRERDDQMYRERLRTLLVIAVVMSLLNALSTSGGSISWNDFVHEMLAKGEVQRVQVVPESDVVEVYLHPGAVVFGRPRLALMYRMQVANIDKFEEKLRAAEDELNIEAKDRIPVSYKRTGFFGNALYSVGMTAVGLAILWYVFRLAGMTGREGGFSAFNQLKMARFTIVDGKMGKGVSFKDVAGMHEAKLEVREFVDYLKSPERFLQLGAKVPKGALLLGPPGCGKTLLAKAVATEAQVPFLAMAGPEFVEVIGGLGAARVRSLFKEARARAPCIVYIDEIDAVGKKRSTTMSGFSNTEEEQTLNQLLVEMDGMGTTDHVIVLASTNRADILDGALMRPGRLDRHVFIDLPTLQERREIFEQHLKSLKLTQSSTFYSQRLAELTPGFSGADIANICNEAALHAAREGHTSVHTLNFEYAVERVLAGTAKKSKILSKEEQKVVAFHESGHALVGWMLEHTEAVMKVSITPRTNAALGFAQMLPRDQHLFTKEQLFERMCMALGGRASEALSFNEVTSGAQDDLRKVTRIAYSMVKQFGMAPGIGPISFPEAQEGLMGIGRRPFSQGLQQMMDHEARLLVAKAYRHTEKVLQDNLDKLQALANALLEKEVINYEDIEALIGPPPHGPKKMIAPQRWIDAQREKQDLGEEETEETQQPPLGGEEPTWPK
UniProt Q9Y6E0: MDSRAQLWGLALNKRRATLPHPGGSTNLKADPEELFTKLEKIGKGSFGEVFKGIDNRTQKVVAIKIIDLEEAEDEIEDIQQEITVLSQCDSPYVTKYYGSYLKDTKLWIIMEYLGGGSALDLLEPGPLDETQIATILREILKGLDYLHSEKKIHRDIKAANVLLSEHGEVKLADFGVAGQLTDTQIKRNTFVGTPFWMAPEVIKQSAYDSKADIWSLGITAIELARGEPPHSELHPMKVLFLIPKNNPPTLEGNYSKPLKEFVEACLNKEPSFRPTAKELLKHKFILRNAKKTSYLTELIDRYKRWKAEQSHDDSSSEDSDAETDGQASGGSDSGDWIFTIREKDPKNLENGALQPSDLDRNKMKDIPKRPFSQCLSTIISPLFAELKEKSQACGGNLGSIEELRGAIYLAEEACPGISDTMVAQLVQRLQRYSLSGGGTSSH
UniProt Q8WW59: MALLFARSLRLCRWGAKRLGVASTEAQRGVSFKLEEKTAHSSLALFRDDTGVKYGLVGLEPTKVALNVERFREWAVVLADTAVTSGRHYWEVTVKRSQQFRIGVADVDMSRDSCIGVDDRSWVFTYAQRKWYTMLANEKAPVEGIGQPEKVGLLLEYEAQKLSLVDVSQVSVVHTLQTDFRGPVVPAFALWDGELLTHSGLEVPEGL
UniProt Q9NRC1: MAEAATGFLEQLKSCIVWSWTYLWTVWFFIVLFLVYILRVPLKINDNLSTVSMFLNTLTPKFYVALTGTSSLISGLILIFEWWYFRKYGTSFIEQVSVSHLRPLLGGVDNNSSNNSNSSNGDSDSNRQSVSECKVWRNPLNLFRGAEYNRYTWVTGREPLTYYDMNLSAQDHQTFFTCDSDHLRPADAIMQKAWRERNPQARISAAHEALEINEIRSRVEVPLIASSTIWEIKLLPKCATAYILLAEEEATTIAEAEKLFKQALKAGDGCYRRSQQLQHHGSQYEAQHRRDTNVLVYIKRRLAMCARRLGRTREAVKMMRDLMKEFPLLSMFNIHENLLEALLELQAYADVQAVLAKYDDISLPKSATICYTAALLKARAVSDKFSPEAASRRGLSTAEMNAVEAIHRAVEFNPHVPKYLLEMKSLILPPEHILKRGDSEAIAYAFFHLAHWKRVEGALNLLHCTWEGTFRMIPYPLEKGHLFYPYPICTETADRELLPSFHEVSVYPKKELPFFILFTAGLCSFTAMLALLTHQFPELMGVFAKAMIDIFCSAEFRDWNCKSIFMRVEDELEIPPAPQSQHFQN
UniProt Q9UH36: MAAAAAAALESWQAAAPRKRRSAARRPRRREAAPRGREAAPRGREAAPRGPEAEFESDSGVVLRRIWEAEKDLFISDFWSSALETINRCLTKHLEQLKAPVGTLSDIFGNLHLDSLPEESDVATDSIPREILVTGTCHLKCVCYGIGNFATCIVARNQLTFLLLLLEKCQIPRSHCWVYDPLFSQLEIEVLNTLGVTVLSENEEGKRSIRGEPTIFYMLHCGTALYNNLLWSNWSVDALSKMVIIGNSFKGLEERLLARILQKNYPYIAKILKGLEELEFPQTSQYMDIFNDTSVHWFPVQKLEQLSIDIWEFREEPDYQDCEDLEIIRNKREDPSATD
UniProt P81877: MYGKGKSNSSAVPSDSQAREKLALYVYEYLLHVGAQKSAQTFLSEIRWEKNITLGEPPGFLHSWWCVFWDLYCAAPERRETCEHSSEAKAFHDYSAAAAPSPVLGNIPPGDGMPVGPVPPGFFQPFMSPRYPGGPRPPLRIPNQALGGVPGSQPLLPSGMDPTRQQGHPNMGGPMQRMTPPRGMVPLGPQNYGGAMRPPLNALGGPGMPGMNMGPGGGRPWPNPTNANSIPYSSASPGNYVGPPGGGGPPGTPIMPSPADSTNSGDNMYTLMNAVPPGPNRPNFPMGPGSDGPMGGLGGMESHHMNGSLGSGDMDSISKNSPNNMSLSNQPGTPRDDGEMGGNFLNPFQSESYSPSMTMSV

Legend:
Assay in all cases: log2 fold change, soluble protein after heating vs DMSO (PISA); higher = thermal stabilisation; K562 cells, 10 uM, 30 min; active = over 0.2 and 3.5 SD of the protein, either way, in both replicates (recomputed)
[1] = compound: Cc1ccc(NC(=O)c2ccc(CN3CC[C@H](N(C)C)C3)c(C(F)(F)F)c2)cc1Nc1nccc(-c2cncnc2)n1 [bafetinib]
Summary of the method: (§1)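 Thermal stability values are relative to control samples and come from duplicates. They are expressed as log2 fold changes. For measurement, K562 cells (2×10^6 cells/mL) received 10 μM compound for 30 min, and aliquots were heated for 3 min over 48°C-58°C, pooled, and extracted at 4°C in PBS with 0.5% NP-40. Soluble protein, the supernatant after 21,000xg for 90 min, was quantified by TMTpro 16plex LC-MS/MS with equalised channel sums.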

[2] = compound: Cc1cccc(CC(=O)N2CCc3c2ccc(-c2cn(C)c4ncnc(N)c24)c3F)n1
Summary of the method: as §1

[3] = compound: Cc1cn(-c2cc(NC(=O)c3ccc(C)c(Nc4nccc(-c5cccnc5)n4)c3)cc(C(F)(F)F)c2)cn1 [nilotinib]
Summary of the method: as §1

[4] = compound: Cc1nc(Nc2n[nH]c3c2CN(C(=O)N[C@H](CN(C)C)c2ccccc2)C3(C)C)c2sccc2n1
Summary of the method: as §1

[5] = compound: Cc1nc(Nc2ncc(C(=O)Nc3c(C)cccc3Cl)s2)cc(N2CCN(CCO)CC2)n1 [dasatinib]
Summary of the method: as §1

[6] = compound: Cc1ncc(-c2ccnc(Nc3ccc(S(C)(=O)=O)cc3)n2)n1C(C)C
Summary of the method: as §1

[7] = compound: Cn1cc(-c2ccc3c(c2)CCN3C(=O)Cc2cccc(C(F)(F)F)c2)c2c(N)ncnc21
Summary of the method: as §1

[8] = compound: Cn1cc(-c2ccc3nnc(C(F)(F)c4ccc5ncccc5c4)n3n2)cn1
Summary of the method: as §1

[9] = compound: Cn1cncc1[C@@](N)(c1ccc(Cl)cc1)c1ccc2c(c1)c(-c1cccc(Cl)c1)cc(=O)n2C [tipifarnib]
Summary of the method: as §1

[10] = compound: FC(F)(F)c1ccc(/C=C/c2nc(COc3ccc(CCCCn4ccnn4)cc3)co2)cc1 [mubritinib]
Summary of the method: as §1

| Target | log2 fold change [1] | log2 fold change [2] | log2 fold change [3] | log2 fold change [4] | log2 fold change [5] | log2 fold change [6] | log2 fold change [7] | log2 fold change [8] | log2 fold change [9] | log2 fold change [10] |
| --- | --- | --- | --- | --- | --- | --- | --- | --- | --- | --- |
| SREK1IP1 (UniProt Q8N9Q2) | inactive: 0.001 | inactive: -0.014 | inactive: -0.003 | inactive: 0.093 | inactive: 0.09 | inactive: -0.058 | inactive: -0.058 | inactive: 0.025 | inactive: 0.09 | inactive: -0.063 |
| STK25 (UniProt O00506) | inactive: -0.015 | inactive: -0.055 | inactive: -0.083 | active: 0.257 | inactive: -0.133 | inactive: -0.033 | inactive: 0.008 | inactive: 0.007 | inactive: 0.042 | inactive: -0.013 |
| SSRP1 (UniProt Q08945) | inactive: 0.007 | inactive: 0.015 | inactive: -0.025 | inactive: -0.175 | inactive: -0.059 | inactive: -0.075 | inactive: 0.03 | inactive: -0.033 | inactive: 0 | inactive: 0.009 |
| SRSF9 (UniProt Q13242) | inactive: 0.166 | inactive: -0.02 | inactive: 0.014 | inactive: 0.05 | inactive: 0.422 | inactive: 0.001 | inactive: -0.377 | inactive: -0.129 | inactive: 0.298 | inactive: -0.189 |
| SRPRA (UniProt P08240) | inactive: 0.143 | inactive: 0.138 | inactive: 0.066 | inactive: 0.04 | inactive: -0.105 | inactive: 0.123 | inactive: 0.054 | inactive: -0.037 | inactive: -0.141 | active: 0.227 |
| STIP1 isoform 2 (UniProt P31948) | inactive: -0.023 | inactive: -0.006 | inactive: -0.014 | inactive: -0.006 | inactive: 0.009 | inactive: 0.006 | inactive: 0.026 | inactive: 0.017 | inactive: 0.013 | inactive: 0.025 |
| SPPL2B (UniProt Q8TCT7) | inactive: -0.087 | inactive: 0.066 | inactive: -0.016 | inactive: -0.006 | inactive: -0.066 | inactive: 0.009 | inactive: 0.116 | inactive: -0.118 | inactive: 0.036 | inactive: -0.008 |
| SRFBP1 (UniProt Q8NEF9) | inactive: 0.075 | inactive: -0.014 | inactive: 0.303 | inactive: -0.031 | inactive: 0.095 | inactive: -0.066 | inactive: -0.163 | inactive: -0.044 | inactive: 0.177 | inactive: -0.129 |
| STARD9 (UniProt Q9P2P6) | inactive: 0.012 | inactive: -0.029 | inactive: 0.016 | inactive: 0.157 | inactive: 0.091 | inactive: 0.002 | inactive: 0.076 | inactive: 0.047 | inactive: 0.07 | inactive: 0.129 |
| SRGAP2 (UniProt O75044) | inactive: -0.028 | inactive: 0.002 | inactive: 0.025 | inactive: -0.095 | inactive: -0.035 | inactive: -0.015 | inactive: -0.006 | inactive: -0.009 | inactive: 0.048 | inactive: 0.026 |
| SPTBN4 (UniProt Q9H254) | inactive: -0.036 | inactive: -0.044 | inactive: -0.167 | inactive: 0.027 | inactive: 0.017 | inactive: -0.04 | inactive: -0.014 | inactive: 0.03 | inactive: -0.09 | inactive: 0.066 |
| SRRM2 (UniProt Q9UQ35) | inactive: 0.068 | inactive: 0.044 | inactive: 0.02 | active: -0.936 | inactive: 0.079 | inactive: -0.261 | inactive: 0.048 | inactive: 0.022 | inactive: 0.077 | inactive: 0.035 |
| STAT6 (UniProt P42226) | inactive: 0.027 | active: 0.502 | inactive: -0.082 | inactive: -0.181 | inactive: -0.115 | inactive: 0.155 | inactive: -0.099 | inactive: -0.042 | inactive: -0.164 | inactive: 0.179 |
| SSR4 (UniProt P51571) | inactive: -0.011 | inactive: -0.057 | inactive: -0.001 | inactive: 0.021 | inactive: -0.028 | inactive: -0.005 | inactive: 0.067 | inactive: 0.026 | inactive: -0.063 | inactive: 0.003 |
| SRPK2 isoform 2 (UniProt P78362) | inactive: 0.236 | inactive: -0.047 | inactive: 0.005 | inactive: 0.393 | inactive: 0.179 | inactive: 0.003 | inactive: -0.258 | inactive: -0.157 | inactive: 0.232 | inactive: -0.105 |
| ST3GAL2 (UniProt Q16842) | inactive: 0.092 | inactive: -0.008 | inactive: 0.191 | inactive: -0.042 | inactive: 0.179 | inactive: 0.081 | inactive: -0.039 | inactive: -0.022 | inactive: 0.076 | inactive: -0.026 |

Reformatted as comma-separated lines: entries from further up
Target,log2 fold change [1],log2 fold change [2],log2 fold change [3],log2 fold change [4],log2 fold change [5],log2 fold change [6],log2 fold change [7],log2 fold change [8],log2 fold change [9],log2 fold change [10]
SSRP1 (UniProt Q08945),inactive: 0.007,inactive: 0.015,inactive: -0.025,inactive: -0.175,inactive: -0.059,inactive: -0.075,inactive: 0.03,inactive: -0.033,inactive: 0,inactive: 0.009
SRSF9 (UniProt Q13242),inactive: 0.166,inactive: -0.02,inactive: 0.014,inactive: 0.05,inactive: 0.422,inactive: 0.001,inactive: -0.377,inactive: -0.129,inactive: 0.298,inactive: -0.189

The list goes on.

| Target | log2 fold change [1] | log2 fold change [2] | log2 fold change [3] | log2 fold change [4] | log2 fold change [5] | log2 fold change [6] | log2 fold change [7] | log2 fold change [8] | log2 fold change [9] | log2 fold change [10] |
| --- | --- | --- | --- | --- | --- | --- | --- | --- | --- | --- |
| SSR3 isoform 2 (UniProt Q9UNL2) | inactive: -0.064 | inactive: 0.034 | inactive: -0.006 | inactive: 0.029 | inactive: 0.006 | inactive: -0.047 | inactive: 0.107 | inactive: -0.167 | inactive: 0.084 | inactive: 0.049 |
| SRSF11 (UniProt Q05519) | inactive: 0.071 | inactive: 0.105 | inactive: -0.024 | active: -1.01 | inactive: -0.034 | inactive: -0.001 | inactive: -0.078 | inactive: 0.015 | inactive: -0.029 | inactive: -0.01 |
| STAG1 (UniProt Q8WVM7) | inactive: -0.015 | inactive: 0.063 | inactive: 0.036 | inactive: -0.097 | inactive: -0.049 | inactive: -0.085 | inactive: 0.012 | inactive: -0.016 | inactive: 0.003 | inactive: 0.072 |
| SSBP4 (UniProt Q9BWG4) | inactive: -0.045 | inactive: -0.069 | inactive: 0.038 | inactive: 0.014 | inactive: -0.021 | inactive: 0.053 | – | inactive: 0.033 | inactive: 0.301 | inactive: 0.066 |
| SPIRE1 (UniProt Q08AE8) | inactive: -0.06 | inactive: -0.194 | inactive: 0.007 | inactive: 0.063 | – | inactive: -0.046 | inactive: -0.155 | inactive: -0.026 | – | inactive: 0.098 |
| STAT1 (UniProt P42224) | inactive: 0.094 | inactive: -0.026 | inactive: -0.035 | inactive: -0.151 | inactive: 0.101 | inactive: -0.007 | inactive: -0.111 | inactive: -0.1 | inactive: 0.132 | inactive: -0.159 |
| SPG7 (UniProt Q9UQ90) | inactive: -0.055 | inactive: -0.049 | inactive: -0.012 | inactive: 0 | inactive: 0.013 | inactive: -0.008 | inactive: 0.002 | inactive: 0.044 | inactive: 0.021 | inactive: -0.022 |
| STK24 (UniProt Q9Y6E0) | inactive: -0.063 | inactive: -0.006 | inactive: -0.083 | inactive: 0.182 | inactive: -0.134 | inactive: -0.02 | inactive: 0.053 | inactive: 0.05 | inactive: -0.027 | inactive: 0.005 |
| SPRYD4 (UniProt Q8WW59) | inactive: -0.011 | inactive: 0.016 | inactive: 0.048 | inactive: 0.038 | inactive: 0.003 | inactive: -0.018 | inactive: 0.057 | inactive: -0.021 | inactive: 0.019 | inactive: 0.01 |
| ST7 (UniProt Q9NRC1) | inactive: 0.057 | inactive: 0.01 | inactive: -0.022 | inactive: 0.023 | inactive: 0.001 | inactive: 0.037 | inactive: -0.055 | inactive: -0.064 | inactive: 0.082 | inactive: 0.036 |
| STC2 (UniProt O76061) | inactive: 0.165 | inactive: -0.044 | inactive: 0.171 | inactive: -0.224 | – | inactive: 0.082 | – | inactive: 0.129 | inactive: 0.292 | – |
| SSBP4 (UniProt U3KPY3) | – | – | – | – | – | – | – | – | – | inactive: 0.046 |
| SSB (UniProt E7ERC4) | – | inactive: -0.025 | – | – | inactive: -0.528 | – | – | – | – | inactive: -0.063 |
| SRRD (UniProt Q9UH36) | inactive: 0.064 | – | inactive: -0.085 | inactive: -0.147 | – | inactive: -0.036 | – | – | inactive: 0.077 | inactive: 0.408 |
| SSBP2 (UniProt P81877) | inactive: -0.005 | inactive: -0.085 | – | – | – | – | inactive: 0.014 | inactive: -0.007 | inactive: -0.166 | inactive: -0.018 |
